Among the data in paper PMC11087107 are binding values, retold here.

Chains of the proteins cited; added tags and fusions are not shown.
UniProt O00487: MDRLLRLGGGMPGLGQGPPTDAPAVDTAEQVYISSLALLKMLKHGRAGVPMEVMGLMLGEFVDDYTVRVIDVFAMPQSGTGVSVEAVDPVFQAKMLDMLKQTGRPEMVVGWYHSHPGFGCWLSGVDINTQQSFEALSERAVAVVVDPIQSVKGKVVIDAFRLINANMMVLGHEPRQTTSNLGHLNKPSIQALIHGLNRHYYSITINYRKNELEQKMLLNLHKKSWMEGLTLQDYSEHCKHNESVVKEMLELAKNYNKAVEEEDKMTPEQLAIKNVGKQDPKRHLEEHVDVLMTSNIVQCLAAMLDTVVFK

This experiment addresses T1, FLAG-tagged HAPSTR1 (human) (UniProt Q14CZ0).
T1 sequence: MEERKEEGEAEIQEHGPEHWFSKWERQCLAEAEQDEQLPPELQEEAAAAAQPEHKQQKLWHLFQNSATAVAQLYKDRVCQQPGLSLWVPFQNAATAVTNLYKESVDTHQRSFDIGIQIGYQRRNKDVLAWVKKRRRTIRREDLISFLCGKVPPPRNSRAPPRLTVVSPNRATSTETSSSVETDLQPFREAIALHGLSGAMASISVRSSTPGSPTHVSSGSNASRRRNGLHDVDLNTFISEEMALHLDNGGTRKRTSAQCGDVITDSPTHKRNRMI
Description: affinity purification with mass spectrometry; SKOV3 cells transfected with FLAG-HAPSTR1; anti-Flag magnetic beads, overnight 4 C, eluted with 3X Flag peptide; SDS-PAGE, Coomassie, Q Exactive MS; proteins found only in the HAPSTR1 flag-OE group.

These are yes or no findings as the source states them, for the method shown. Binding seen in cells or lysates may run through a third protein. These calls come from enrichment with a bait or labelling near it, and not all partners need be listed. Tags and fused reporters may be left off the sequences shown.

Consider PSMD14 (from UniProt O00487 1-310), for which the binding entry is given as “binds”.
